Assay results as given in US12018229B2, “Organic compounds” (Givaudan SA, priority 2018, dated 2024).

Assay: Odor description (olfactory evaluation of the compound / isomeric mixture)
Settings: odor of the isomeric mixture unless otherwise indicated

Compound | Odor description
CC1=CCOC(CCCCc2ccccc2)C1 (stereo not drawn) [Example 4, 4-Methyl-2-(4-phenylbutyl)-3,6-dihydro-2H-pyran, reference compound] | weak, green, crunchy, bell pepper, floral
CC1=CC(C)OC(CCCc2ccccc2)C1 (stereo not drawn) [Example 2, 4,6-Dimethyl-2-(3-phenylpropyl)-3,6-dihydro-2H-pyran] | green, pyrazine like, rooty, petitgrain, chili pepper
CC1=CCOC(Cc2ccccc2)C1 (stereo not drawn) [Example 3, 2-Benzyl-4-methyl-3,6-dihydro-2H-pyran] | green, rosy, metallic, rose oxyde, gun powder, sharp, intense, fatty, floral
CC1=CCOC(CCc2ccccc2)C1 (stereo not drawn) [Example 5, 4-Methyl-2-phenethyl-3,6-dihydro-2H-pyran, reference compound] | green, rosy, metallic, geranium leaf
CC1=CCOC(CCCc2ccccc2)C1 (stereo not drawn) [Example 1, 4-Methyl-2-(3-phenylpropyl)-3,6-dihydro-2H-pyran] | green, earthy, stemone, bell pepper, petitgrain, sligthly rosy

Same assay, conditions: odor of the isomeric mixture unless otherwise indicated; listed as 4-methyl-2-(3-phenylpropyl)-3,6-dihydro-2H-pyran

Compound | Odor description
CC1=CCOC(CCCc2ccccc2)C1 (stereo not drawn) [Example 1, 4-Methyl-2-(3-phenylpropyl)-3,6-dihydro-2H-pyran] | very powerful, green, earthy, stemone, bell pepper, petitgrain, sligthly rosy
